The test relates to primary human hepatic stellate cells (donor 1). Briefly: percent Bodipy-positive cells; higher = more lipid droplet accumulation. Particulars: 48 h.
[1] abbreviates: library stock concentration: 10 mM.
[2] abbreviates: library stock concentration: 3.33 mM.
Setting [3] is: library stock concentration: 80 uM.
[4] abbreviates: library stock concentration: 400 uM.
[5] abbreviates: library stock concentration: 2 mM.
Where [6] appears, read: library stock concentration: 1 mM.

Several values for one entry are separate records, joined by “and”; a condition that tells them apart may be missing. Equal values may be shown once. Where a name gives a salt, the structure may show the parent alone. ± gives the standard deviation of the averaged measurements. Some of the results follow. Plates or batches differ in their baseline, so values are only roughly comparable.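 Primary human stellate myofibroblasts activated in culture; inactivation shown by regained lipid droplets. Readout: fraction of Hoechst-counted cells exceeding a per-plate Bodipy threshold, duplicate wells, each plate with DMSO negative and nortriptyline positive controls. Hits: control-normalized score beyond the plate's top-tenth-percentile nortriptyline wells, or among its three best wells. Final well concentrations unstated.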

Take `CS(=O)(=O)CCNCc1nc(-c2ccc3ncnc(Nc4ccc(OCc5cccc(F)c5)c(Cl)c4)c3c2)cs1.Cl.Cl`: the “percent Bodipy-positive cells” value under setting [1] was determined as 82.9 ± 4.1%.

As to `Cc1noc(-c2ccc(CSCCC(=O)O)cc2)c1NC(=O)OC(C)c1ccccc1Cl` (stereo not given), the “percent Bodipy-positive cells” value under setting [2] is 5.58 ± 1.3% and the “percent Bodipy-positive cells” value under setting [1] worked out at 10.8 ± 3.6%.

As to `Cc1ccc(C(=O)Nc2cccc(C(F)(F)F)c2)cc1Nc1nc(-c2cccnc2)nc2c1cnn2C`, the “percent Bodipy-positive cells” value reads like this: under setting [3], 13 ± 2.1%; under setting [4], 9.49 ± 2.2%; under setting [5], 9.58 ± 2.9%; under setting [1], 69.8 ± 16%.

As to `COc1ccc(-c2cc(=O)c3c(OC)c(OC)c(OC)c(OC)c3o2)cc1OC` [Nobiletin], the “percent Bodipy-positive cells” value under setting [2] stood at 12.9 ± 3.2%; the “percent Bodipy-positive cells” value under setting [1] was 23.7% and 38.5%.

Regarding `CC(N)=NCc1cccc(CN)c1`, the “percent Bodipy-positive cells” value (library stock concentration: 20 mM) came out at 19.9 ± 5.9%.

As to `O=c1cc[nH]c(=O)[nH]1`, the “percent Bodipy-positive cells” value under setting [1] came to 34.95 ± 0.34%.

On to `O=c1cc[nH]c(=O)[nH]1` [Uracil], for which the “percent Bodipy-positive cells” value under setting [2] turned out to be 17.4 ± 0.88% and the “percent Bodipy-positive cells” value under setting [1] stood at 35.8 ± 5.7%.

As for `CCCCCCCCCCCCCCCCCC(=O)NCCO` [Stearoyl Ethanolamide], the “percent Bodipy-positive cells” value under setting [6] was 7.82 ± 1.4%.

Take `CN1[C@@H]2CC[C@H]1C[C@@H](OC(=O)C(O)c1ccccc1)C2` (mixture of isomers) [Homatropine hydrobromide (R,S)]: the “percent Bodipy-positive cells” value was found to be 30.6 ± 3.6%.

As for `CN1[C@@H]2CC[C@H]1C[C@@H](OC(=O)C(O)c1ccccc1)C2` (mixture of isomers) [DL-Homatropine hydrobromide], the “percent Bodipy-positive cells” value under setting [1] was 56 ± 2.3%.

Regarding `O=[N+]([O-])c1cn2c(n1)OC[C@@H](OCc1ccc(OC(F)(F)F)cc1)C2`, the “percent Bodipy-positive cells” value under setting [2] amounted to 9.68 ± 3.4% and the “percent Bodipy-positive cells” value under setting [1] stood at 16.5 ± 8.8%.

Consider `CC(C)[C@@H]1NC(=O)[C@H](Cc2ccccc2)NC(=O)[C@@H](CC(=O)O)NC(=O)CNC(=O)[C@H](CCCN=C(N)N)NC1=O` [Cyclo [Arg-Gly-Asp-D-Phe-Val]], for which, where the note is “library stock concentration: 8.7 mM”, the “percent Bodipy-positive cells” value was 16.3 ± 1.3%.

With `Cn1nnc2c(C(N)=O)ncn2c1=O`, under setting [1], the “percent Bodipy-positive cells” value is 12.9% and 34.2%.

On to `Cn1nnc2c(C(N)=O)ncn2c1=O` [Temozolomide], for which the “percent Bodipy-positive cells” value is, setting by setting: under setting [2], 13.6 ± 1.2%; under setting [1], 24.7% and 6.75%.

`COc1ccc(CCC(=O)c2c(O)cc(O[C@@H]3O[C@H](CO)[C@@H](O)[C@H](O)[C@H]3O[C@@H]3O[C@@H](C)[C@H](O)[C@@H](O)[C@H]3O)cc2O)cc1O` [Neohesperidin dihydrochalcone]: the “percent Bodipy-positive cells” value under setting [1] was 21.4 ± 9.1%.

For `CC(C)(C)CC(C)(C)c1ccc(OCCOCC[N+](C)(C)Cc2ccccc2)cc1` [Benzethonium Chloride], the “percent Bodipy-positive cells” value is, setting by setting: under setting [2], 20.5 ± 1.2%; under setting [1], 98.9 ± 0.73%.

As for `CC(C)(C)CC(C)(C)c1ccc(OCCOCC[N+](C)(C)Cc2ccccc2)cc1` [Benzethonium chloride], the “percent Bodipy-positive cells” value amounted to 53.9 ± 12%. Besides, under “library stock concentration: 4.5 mM”, the “percent Bodipy-positive cells” value worked out at 5.69 ± 3.3%. Besides, the “percent Bodipy-positive cells” value under setting [1] was 39.5 ± 4.4%.

Turning to `Nc1nc(NCC2CCC(CNS(=O)(=O)c3cccc4ccccc34)CC2)nc2ccccc12` (stereo not given), the “percent Bodipy-positive cells” value under setting [1] is 96 ± 5.6%.

`CCCCCC(=O)CC[C@H]1[C@H](O)CC(=O)[C@@H]1CCCCCCC(=O)O` [13,14-dihydro-15-keto Prostaglandin E1]: under setting [6], the “percent Bodipy-positive cells” value was 16.3 ± 6.8%.

With `CCCCOc1ccc(C(=O)CCN2CCCCC2)cc1` [Dyclonine hydrochloride], the “percent Bodipy-positive cells” value was 35.5 ± 4.1%. Besides, the “percent Bodipy-positive cells” value (library stock concentration: 6.1 mM) came to 5.29 ± 0.96%. In addition, the “percent Bodipy-positive cells” value under setting [1] amounted to 11.7 ± 3.6%.

Turning to `CCCCOc1ccc(C(=O)CCN2CCCCC2)cc1` [Dyclonine HCl], the “percent Bodipy-positive cells” value runs as follows: under setting [2], 8.379 ± 0.019%; under setting [1], 22.8 ± 12%.

For `O=C(O)COc1ccc(C(=O)c2cccs2)c(Cl)c1Cl` [Tienilic Acid], the “percent Bodipy-positive cells” value under setting [6] is 9.1 ± 2.5%.

Take `C=C1C(=O)O[C@H]2[C@H]1CC/C(C)=C/CC[C@@]1(C)O[C@@H]21` [Parthenolide]: the “percent Bodipy-positive cells” value worked out at 100%. In addition, where the note is “library stock concentration: 20.1 mM”, the “percent Bodipy-positive cells” value stood at 97.9 ± 3%.

Turning to `C=C1C(=O)O[C@H]2[C@H]1CC/C(C)=C/CC[C@@]1(C)O[C@@H]21` [(-)-Parthenolide], the “percent Bodipy-positive cells” value reads like this: under setting [2], 22 ± 3.3%; under setting [1], 98.5 ± 2%.

For the compound `COc1ccc(-c2cc3nccn3c(Nc3ncccc3C(N)=O)n2)cc1OC`, the “percent Bodipy-positive cells” value runs as follows: under setting [3], 22 ± 1.8%; under setting [4], 22.7 ± 13%; under setting [5], 35.2 ± 12%; under setting [1], 43.1 ± 4.6%.

With `Cc1cc2c(C(=O)NCC(C)c3ccccc3)c(O)c(O)cc2c(O)c1-c1c(C)cc2c(C(=O)NCC(C)c3ccccc3)c(O)c(O)cc2c1O` (stereo not given) [Sabutoclax], the “percent Bodipy-positive cells” value under setting [2] was 87 ± 2.5% and the “percent Bodipy-positive cells” value under setting [1] stood at 75.6 ± 7.8%.

With `COc1ccc(CCn2nnnc2C2(c3ccc(C)cc3)CC2)cc1` [Mephetyl tetrazole], the “percent Bodipy-positive cells” value under setting [1] stood at 41.8 ± 17%.

Turning to `COc1ccc(CCC(=O)Nc2nc3ccc(Cl)cc3s2)cc1OC`, the “percent Bodipy-positive cells” value runs as follows: under setting [2], 40 ± 14%; under setting [1], 27.2 ± 3.5%.

In the case of `CC[C@H](C)C(=O)O[C@H]1C[C@H](O)C=C2C=C[C@H](C)[C@H](CC[C@@H]3C[C@@H](O)CC(=O)O3)[C@H]21` [Pravastatin lactone], the “percent Bodipy-positive cells” value (library stock concentration: 4.9 mM) was 10.3 ± 2.8%.

With `Nc1nc(N)c2nc(-c3ccccc3)c(N)nc2n1` [Triamterene], the “percent Bodipy-positive cells” value is 25.3 ± 1.3%. Moreover, the “percent Bodipy-positive cells” value under setting [2] is 12.3 ± 1.6%. The “percent Bodipy-positive cells” value (library stock concentration: 7.9 mM) amounted to 26.6 ± 9.1%. Also, under setting [1], the “percent Bodipy-positive cells” value is 32.5% and 24.8% and 35.7%.

Regarding `C=C1CC[C@H](O)C/C1=C/C=C1\CCC[C@]2(C)[C@@H]([C@H](C)/C=C/[C@H](C)C(C)C)CC[C@@H]12` [Ergocalciferol], the “percent Bodipy-positive cells” value reads like this: (library stock concentration: 5 mM) 3.68 ± 0.43%; under setting [1], 7.65 ± 0.096%.

As for `C=C1CC[C@H](O)C/C1=C/C=C1\CCC[C@]2(C)[C@@H]([C@H](C)/C=C/[C@H](C)C(C)C)CC[C@@H]12` [Vitamin D2], the “percent Bodipy-positive cells” value is, setting by setting: under setting [2], 5.47 ± 1.1%; under setting [1], 89.7 ± 1.4%.

In the case of `C=C1CC[C@H](O)C/C1=C/C=C1\CCC[C@]2(C)[C@@H]([C@H](C)/C=C/[C@H](C)C(C)C)CC[C@@H]12` [Calciferol], the “percent Bodipy-positive cells” value worked out at 15.5 ± 0.49%.

`Cc1ccc(C(=O)Cn2c3c(sc2=N)CCCC3)cc1` [Pifithrin-.alpha.]: the “percent Bodipy-positive cells” value under setting [6] was 10.6 ± 1.8%.

Turning to `CCCCCC=CCC=CCCCCCCCC(=O)OC(COC(=O)CCCCCCCCCCCCCCC)COP(=O)(O)OCCN` (stereo not given) [1-Palmitoyl-2-linoleoyl PE], the “percent Bodipy-positive cells” value under setting [6] is 8.73 ± 0.15%.

As to `CC(C)(C)NC(=O)[C@H]1CC[C@H]2[C@@H]3CC[C@H]4NC(=O)C=C[C@]4(C)[C@H]3CC[C@]12C`, the “percent Bodipy-positive cells” value under setting [1] came to 13.5 ± 1.2%.

Take `CC(C)(C)NC(=O)[C@H]1CC[C@H]2[C@@H]3CC[C@H]4NC(=O)C=C[C@]4(C)[C@H]3CC[C@]12C` [Finasteride]: the “percent Bodipy-positive cells” value was found to be 10.2 ± 1.8%. Besides, the “percent Bodipy-positive cells” value under setting [2] worked out at 22.6 ± 7.2%. Also, under “library stock concentration: 5.4 mM”, the “percent Bodipy-positive cells” value is 6.75% and 3.46%. Moreover, the “percent Bodipy-positive cells” value under setting [1] stood at 10.4 ± 0.87%.

As for `C=CC[N+]1([C@H]2C[C@H]3[C@@H]4CC[C@H]5C[C@H](O)[C@@H](N6CCOCC6)C[C@]5(C)[C@H]4CC[C@]3(C)[C@H]2OC(C)=O)CCCC1` [Rocuronium Bromide], the “percent Bodipy-positive cells” value under setting [2] turned out to be 9.91 ± 0.13% and the “percent Bodipy-positive cells” value under setting [1] was determined as 17.1 ± 5.3%.

Take `Cc1ccc(C(=O)N(CCCN)[C@@H](c2oc3cc(Cl)ccc3c(=O)c2Cc2ccccc2)C(C)C)cc1`: the “percent Bodipy-positive cells” value was 57.9 ± 6.5% under setting [2] and 100% under setting [1].

In the case of `C[N+](C)(C)C[C@H](O)CC(=O)[O-]` [Levocarnitine], for the setting “library stock concentration: 12.4 mM”, the “percent Bodipy-positive cells” value was 13.2 ± 8.5%.

Consider `Cn1cnc(=N)c2[nH]cnc21` [3-Methyladenine], for which the “percent Bodipy-positive cells” value under setting [2] was 11.1 ± 2.7% and the “percent Bodipy-positive cells” value under setting [1] amounted to 12.3 ± 2.7%.

For the compound `CCCCCC#CCC#CCC#CCCCCCCC(=O)O` [8,11,14-Eicosatriynoic Acid], under setting [6], the “percent Bodipy-positive cells” value is 10.4 ± 2.7%.

With `O=c1c2ccccc2nc2n1CCc1c-2[nH]c2ccccc12` [Rutaecarpine], the “percent Bodipy-positive cells” value under setting [1] was 91.1 ± 2.2%.

Values taken from the supplement of paper PMC9135407.
